# Data: PubChem BioAssay AID1439 (NMMLSC, 2008)
# Amino acid sequences for entries named in this document (tags omitted).
# UniProt P09471, whole entry, looked up: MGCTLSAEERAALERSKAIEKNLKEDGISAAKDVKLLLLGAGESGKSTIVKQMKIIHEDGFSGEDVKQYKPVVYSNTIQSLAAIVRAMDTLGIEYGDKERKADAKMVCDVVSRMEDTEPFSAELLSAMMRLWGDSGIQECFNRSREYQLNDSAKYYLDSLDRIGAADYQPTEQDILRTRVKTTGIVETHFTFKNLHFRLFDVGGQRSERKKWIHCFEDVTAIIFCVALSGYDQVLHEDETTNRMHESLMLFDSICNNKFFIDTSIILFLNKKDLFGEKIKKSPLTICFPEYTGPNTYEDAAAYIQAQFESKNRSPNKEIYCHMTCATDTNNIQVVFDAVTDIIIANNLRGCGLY
# The campaign covered roughly 220,000 compounds. About 770 (0.35%) were called active. The inconclusive results got no clear call from the source; some entries with a clear call stand among them for comparison. Rule as the data show it: active = binding response below about 49% or above about 150%; inconclusive = no clear call, values can overlap the other calls; inactive = in between.
# Molecular target: Guanine nucleotide-binding protein G(o) subunit alpha (Homo sapiens) (UniProt P09471)
# Experiment: RGS7-Galphao binding modulators, primary screen, biochemical, multiplexed bead flow cytometry (AID 1439);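 also: fluorescent Galphao held in activated GDP-AlF4 state binding bead-coupled RGS7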
# Settings: at 10 µM, actives lie on both sides
row,Compound,binding response (% of control)
1,COc1ccc(-c2nn(CCC(=O)O)cc2/C=N/NC(N)=S)cc1,inconclusive: 114%
2,CN(c1ccccc1)S(=O)(=O)c1ccc(C(=O)Nc2nnc(C3CC3)s2)cc1,inconclusive: 113%
3,COc1ccc(-c2cc(C(F)(F)F)nc(SCC(=O)N(C)Cc3cn(C)nc3C)n2)cc1OC,inactive: 74.6%
4,CCOC(=O)c1cc(Sc2ccccc2N)cc(C(=O)OCC)n1,inconclusive: 113%
5,c1ccc(CSC2=NNC(c3ccccn3)S2)cc1 (stereo unspecified),inconclusive: 114%
6,C=CCN(CC=C)C(=S)NC(=O)Cc1cccc2ccccc12,inactive: 99.4%
7,CC1(OC(=O)C2CCCC2)C(=O)C=C2C=C(c3ccsc3)OC=C2C1=O (stereo unspecified),inconclusive: 108%
8,CCN(CC)S(=O)(=O)c1cccc(C(=O)N/N=C/c2ccc(N3CCOCC3)cc2)c1,inactive: 99.4%
9,O=C(CNS(=O)(=O)c1ccccc1)NCC(=O)OCc1ccc(Cl)cc1,inconclusive: 130%
10,NC(=O)c1nn(-c2ccccc2)nc1NC(=O)CN1CCCC1,inconclusive: 119%
11,CSc1nn2c(C(F)(F)F)cc(C(F)(F)F)nc2c1C(=O)O,inconclusive: 198%
12,CCC(C)[C@H](NC(=O)NCCC1=CCCCC1)C(=O)O (stereo partly specified),inconclusive: 78.4%
13,COc1ccc(C2/C=C\CN(Cc3ccncc3)CC(=O)N2Cc2ccc(F)cc2)cc1 (stereo unspecified),inconclusive: 115%
14,Cc1ccc(/C=N/n2c(-c3ccccn3)n[nH]c2=S)o1,inconclusive: 113%
15,CCC1S/C(=N/N=C/c2ccco2)N(Cc2ccc(F)cc2)C1=O (stereo unspecified),inconclusive: 115%
16,Cc1c(C(=O)N/N=C/c2ccccc2)[nH]c2c([N+](=O)[O-])cccc12,inconclusive: 134%
17,CC(C)Cn1c(N)c(-c2nc(C(C)C)c(C(=O)c3ccccc3F)s2)c(=O)n(C)c1=O,inconclusive: 127%
18,Cc1ccc2nc(Cl)c(C3CC(c4ccco4)=NN3S(C)(=O)=O)cc2c1 (stereo unspecified),inconclusive: 95.8%
19,O=C(Nc1ccc2c(c1)OCCO2)c1cccnc1Oc1ccc(Cl)cc1,inconclusive: 266%
20,C/C(=N\NC(=O)c1c(Br)cnn1C)c1ccc(NC(=O)c2ccc(F)cc2)cc1,inactive: 85.7%
21,CCCn1c(SCC(=O)NCc2ccccc2Cl)n[nH]c1=O,inconclusive: 103%
22,N[C@@H](Cc1ccccc1)c1nnc(SC/C=C/c2ccccc2)o1,inconclusive: 103%
23,CCOC(=O)/C(N=Nc1c(C)n(C)n(-c2ccccc2)c1=O)=C(/O)c1ccccc1,inconclusive: 105%

# Looked up above.
# For binding response (% of control), Cc1ccc(/C=N/n2c(-c3ccccn3)n[nH]c2=S)o1 has inconclusive: 113%
# For binding response (% of control), O=C(CNS(=O)(=O)c1ccccc1)NCC(=O)OCc1ccc(Cl)cc1 has inconclusive: 130%
# For binding response (% of control), COc1ccc(-c2nn(CCC(=O)O)cc2/C=N/NC(N)=S)cc1 has inconclusive: 114%
# For binding response (% of control), CCOC(=O)/C(N=Nc1c(C)n(C)n(-c2ccccc2)c1=O)=C(/O)c1ccccc1 has inconclusive: 105%

# Following part:

row,Compound,binding response (% of control)
1,CC(=O)Nc1cccc(OCCCNS(=O)(=O)c2ccc(F)cc2)c1,inconclusive: 177%
2,CCCSc1cc(Cl)nc(N)n1,inconclusive: 101%
3,COc1cccc(C2=NOC(C(=O)Nc3c(C)n(C)n(-c4ccccc4)c3=O)C2)c1 (stereo unspecified),inconclusive: 48%
4,Cc1nnsc1C(=O)NNS(=O)(=O)c1cc(C(F)(F)F)cc(C(F)(F)F)c1,inconclusive: 81.9%
5,O=C(COC(=O)c1cc(=O)[nH]c2ccccc12)c1ccc(Br)cc1,inconclusive: 128%
6,CC1=CC(=O)CC2C1(C)CCC(C)C2(C)CCC(C)CC(=O)O (stereo unspecified),inconclusive: 98%
7,COc1ccccc1Oc1ccc(Oc2ccccc2OC)cc1,inconclusive: 106%
8,COc1ccc(NC(=O)Nc2cccc(C(F)(F)F)c2)cn1,inconclusive: 130%
9,CN1CCN(CC(O)COc2ccc(C34CC5CC(CC(C5)C3)C4)cc2)CC1 (stereo unspecified),inconclusive: 87.6%
10,CC(=O)c1ccc2c(c1)OCCOCCOc1ccccc1OCCOCCO2,inconclusive: 126%
11,Cn1nc(C(F)(F)F)cc1-c1ccc(/C=C(\C#N)C(=O)c2cccc(C(F)(F)F)c2)s1,inconclusive: 564%
12,CC1=CC(C)(C)n2c(O)c(N=N)c3c(C)ccc1c32,inconclusive: 64%
13,CCCCCC(=O)N1CCCCC1,inconclusive: 76.6%
14,Cc1cc(N2C(=O)[C@@H]3[C@H](C2=O)[C@@H]2C[C@H]3C(Br)C2Br)no1 (stereo partly specified),inconclusive: 108%
15,O=C(NCC(O)COc1ccc([N+](=O)[O-])cc1)c1ccccc1 (stereo unspecified),inconclusive: 99.6%
16,CCN1CCN(Cc2ccc(NC(=O)c3ccc(C)c(NC(=O)c4c[nH]c5cc(C(F)(F)F)ccc5c4=O)c3)cc2C(F)(F)F)CC1,inconclusive: 94.3%
17,Cn1cc(S(=O)(=O)CC(=O)Nc2ccc3c(c2)OCO3)c2ccccc21,active: 275% [activator]
18,COc1cc(C2C3=C(CCCC3=O)Nc3c2c(C)nn3-c2cccc(C)c2)cc(OC)c1O (stereo unspecified),inconclusive: 117%
19,CCOC(=O)c1cc(-c2ccc(C)cc2)n(CCC(=O)NC(C)CC)c1C (stereo unspecified),inactive: 105%
20,COc1ccc(CCNC(=O)Cn2c(=O)oc3cc(Cl)ccc32)cc1OC,inconclusive: 112%
21,CCc1nc2sc3c(O)cc(=O)[nH]c3c2cc1C,inactive: 103%
22,O=[N+]([O-])c1ncn(C23CC4CC(CC(C4)C2)C3)n1,inconclusive: 114%
23,O=C(O)c1cccc(S(=O)(=O)Nc2ccc(S(=O)(=O)N3CCOCC3)cc2)c1,inconclusive: 66%

row,Compound,binding response (% of control)
1,CC(N=c1ccccn1C(=O)Nc1cccc(C(F)(F)F)c1)c1ccco1 (stereo unspecified),inactive: 100%
2,COc1cccc(Cl)c1NC(=O)N1CCN(c2ccnc3cc(Cl)ccc23)CC1,inconclusive: 108%
3,CC(C)C[C@H](NC(=O)c1[nH]cnc1C(=O)Nc1ccc(CNC(=O)OC(C)(C)C)cc1)C(=O)OCc1ccccc1,inconclusive: 33.4%
4,CCOC(=O)c1cnc2ncnn2c1N,inconclusive: 97.3%
5,CCOC(=O)c1ccccc1NC(=O)Cn1cnc2c(nnn2-c2ccc(C)cc2)c1=O,inactive: 100%
6,CC(C)(C)NC(=O)C(c1ccncc1)N(C(=O)c1csnn1)c1cccc2ccccc12 (stereo unspecified),inconclusive: 99.5%
7,Cc1ccc(-c2nn(CCC(=O)NN3CCOCC3)c(=O)c3ccccc23)cc1,inconclusive: 135%
8,CC(C)(C)n1cn[nH]c1=S,inconclusive: 101%
9,CN(CCc1ccccn1)C(=O)Nc1cc(Cl)cc(Cl)c1,inconclusive: 51.5%
10,CC(=O)Nc1nc(-c2ccc3c(c2)OCO3)cs1,inconclusive: 75.1%
11,Cc1cc(C(=O)NNC(=O)Nc2ccc(Cl)cc2)no1,inconclusive: 109%
12,COc1ccc(NC(=S)N(CCN(C)C)C(C)c2ccncc2)cc1Cl (stereo unspecified),inconclusive: 93.2%
13,Cc1cc(C)cc(NC(=O)c2ccc(CNc3c(N4CCCC4)c(=O)c3=O)cc2)c1,inconclusive: 107%
14,COc1cc2c(cc1OC)C(C)N(C(=O)c1c(-c3ccccc3)noc1C)CC2 (stereo unspecified),inconclusive: 96.9%
15,FC(F)(F)c1cccc(NC(=S)NNC(=S)Nc2ccc(Cl)cc2)c1,inconclusive: 119%
16,CCSC(=O)NC1CCCCC1,inconclusive: 107%
17,O=C(NCCc1cccs1)C1CC1,inconclusive: 43.5%
18,Cc1ccc(/C=N/NC(=O)c2ccncc2)s1,inconclusive: 131%
19,CC1=CSC2=NS(=O)(=O)CCN12,inconclusive: 116%
20,O=[N+]([O-])c1ccc(/C([O-])=C(/C(=S)Nc2ccccc2F)[n+]2ccccc2)cc1,inconclusive: 104%
21,CCC(C)(C)c1nnc(NC(=O)c2cccc([N+](=O)[O-])c2)s1,inactive: 89.2%
22,CSc1ccccc1NC(=O)NCCCl,inconclusive: 102%
23,Cn1c(=O)c(/C(N)=N/OC(=O)c2ccccc2)cn(-c2ccccc2)c1=O,inconclusive: 265%

row,Compound,binding response (% of control)
1,Cc1cccc(-c2noc(-c3ccoc3C)n2)c1,inconclusive: 82.5%
2,COCCNC(=S)NC(=O)CC12CC3CC(CC(C3)C1)C2,inactive: 116%
3,Cc1cccn2cc(COc3ccc(-c4ccccc4)cc3)nc12,inactive: 93.1%
4,CCc1ccc2c(c1)C(c1ccc(N3CCOCC3)cc1)=NNC(c1ccncc1)=N2,inconclusive: 109%
5,O=C(O)/C(=C\c1ccccc1)c1ccccc1,inconclusive: 110%
6,CC1=NN(c2ccccc2)C(=O)C1C=Nc1ccccc1O (stereo unspecified),inconclusive: 108%
7,CCOC(=O)C1=C(C)OC(N)=C(C(=O)OCC)C1c1cccnc1 (stereo unspecified),inactive: 61.7%
8,COc1ccc(/C=N/NC(=O)Cn2cnc3c2c(=O)n(C)c(=O)n3C)cc1,inconclusive: 55.5%
9,CN(C)/C=C(\C=O)c1cccc(Cl)c1,inconclusive: 94.5%
10,Cc1cc(-c2ccccc2)n2ncnc2n1,inconclusive: 117%
11,COc1cc(/C=C2/CCc3ccccc3C2=O)cc(OC)c1OC,inactive: 101%
12,C=CCn1c(N(C)C)nc2c1c(=O)[nH]c(=O)n2C,inconclusive: 85.8%
13,CSc1cccc(NC(=O)CSc2nnc(C)s2)c1,inactive: 101%
14,O=C1C(Cl)=C(Nc2ccc(O)cc2)C(=O)c2ccccc21,inconclusive: -96.2%
15,NCCc1c(C(=O)O)[nH]c2ccc([N+](=O)[O-])cc12,inconclusive: 105%
16,O=C1S/C(=C\c2ccc(Cl)cc2)C(=O)N1CCn1cnnn1,inconclusive: 90.8%
17,O=C1CNC(=S)N1CCc1ccc(O)c(O)c1,inconclusive: 101%
18,Cc1ccc2ccc(S(=O)(=O)n3nc(C)cc3C)cc2c1,inactive: 120%
19,c1ccc(CN2CCC(Nc3nc(-c4cccnc4)nc4ccccc34)CC2)cc1,inconclusive: 74.9%
20,Cc1ccccc1C(=O)Nn1c(C)ccc1C,inactive: 103%
21,CCOC(=O)N1CCC(NC(=O)C2=CCN(S(=O)(=O)c3ccc(OC)cc3)CC2)CC1,inconclusive: 118%
22,O=C(Nc1ccc(-c2csc(Nc3ccc(Cl)cc3)n2)cc1)c1cccc(C(F)(F)F)c1,inconclusive: 116%
